No constants are given. Whether binding was seen depends on the method and setting. Binding can be weak; no strength is given. Sequences can lack the tags named with a protein.
Legend:
[1] = target: T1, AtHIR3 (BD fusion) (Arabidopsis thaliana) (UniProt Q9SRH6); assay: two-hybrid; HIR-BD (pGBT9) as bait and JAZ-AD (pGAD424) as prey co-transformed into Y2HGOLD yeast, 30 °C; growth on -Leu/-Trp/-His/-Ade medium with X-alpha-gal
T1 sequence: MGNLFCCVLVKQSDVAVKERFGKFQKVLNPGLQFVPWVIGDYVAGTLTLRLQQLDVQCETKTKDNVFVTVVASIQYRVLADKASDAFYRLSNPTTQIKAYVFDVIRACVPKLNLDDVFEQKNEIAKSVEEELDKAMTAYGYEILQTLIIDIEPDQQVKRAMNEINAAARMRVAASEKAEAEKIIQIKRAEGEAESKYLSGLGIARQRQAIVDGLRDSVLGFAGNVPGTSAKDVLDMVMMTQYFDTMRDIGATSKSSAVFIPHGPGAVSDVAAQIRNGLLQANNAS

[2] = target: T2, AtHIR1 (BD fusion) (Arabidopsis thaliana) (UniProt Q9FM19); assay: as above
T2 sequence: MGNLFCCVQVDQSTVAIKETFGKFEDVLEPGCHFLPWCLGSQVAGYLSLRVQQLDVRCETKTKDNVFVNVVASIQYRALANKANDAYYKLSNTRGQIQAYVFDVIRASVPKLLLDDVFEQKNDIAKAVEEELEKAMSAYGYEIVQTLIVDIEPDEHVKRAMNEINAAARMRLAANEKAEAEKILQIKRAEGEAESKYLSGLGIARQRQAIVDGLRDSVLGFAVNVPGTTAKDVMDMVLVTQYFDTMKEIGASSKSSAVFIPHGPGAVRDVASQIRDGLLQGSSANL

[3] = target: T3, AtHIR2 (BD fusion) (Arabidopsis thaliana) (UniProt Q9CAR7); assay: as above
T3 sequence: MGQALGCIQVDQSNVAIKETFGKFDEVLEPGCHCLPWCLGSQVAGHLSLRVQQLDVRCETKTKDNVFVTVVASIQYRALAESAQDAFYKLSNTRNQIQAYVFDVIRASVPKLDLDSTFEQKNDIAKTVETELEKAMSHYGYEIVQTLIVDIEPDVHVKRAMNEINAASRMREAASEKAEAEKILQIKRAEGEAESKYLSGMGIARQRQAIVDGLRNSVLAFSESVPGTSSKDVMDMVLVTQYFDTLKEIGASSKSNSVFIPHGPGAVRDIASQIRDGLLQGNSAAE

[4] = target: T4, AtHIR4 (BD fusion) (Arabidopsis thaliana) (UniProt Q9FHM7); assay: as above
T4 sequence: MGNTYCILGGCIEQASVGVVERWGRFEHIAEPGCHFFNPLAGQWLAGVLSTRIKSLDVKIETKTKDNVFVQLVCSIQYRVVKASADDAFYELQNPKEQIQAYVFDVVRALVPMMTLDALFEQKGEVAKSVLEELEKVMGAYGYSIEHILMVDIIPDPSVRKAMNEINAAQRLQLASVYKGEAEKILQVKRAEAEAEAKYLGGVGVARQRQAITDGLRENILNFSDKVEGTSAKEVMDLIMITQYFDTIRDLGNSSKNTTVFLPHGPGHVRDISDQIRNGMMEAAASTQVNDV

AtJAZ9-HIS (Arabidopsis) = assay: pull-down; purified JAZ-HIS and HIR-GST proteins mixed, 1 h at 4 °C, 80 rpm, recovered with a His purification kit; Western blot with anti-His and anti-GST; both purified
AtJAZ3-HIS (Arabidopsis) = assay: as above

Row | Molecule | binding [1] | binding [2] | binding [3] | binding [4] | binding (AtJAZ9-HIS (Arabidopsis)) | binding (AtJAZ3-HIS (Arabidopsis))
1 | AtJAZ3 (AD fusion) (Arabidopsis) | binds | binds | binds | binds |  | 
2 | AtJAZ4 (AD fusion) (Arabidopsis) | no binding | binds | no binding | binds |  | 
3 | AtJAZ9 (AD fusion) (Arabidopsis) | no binding | binds | no binding | binds |  | 
4 | AtHIR1-GST (protein, UniProt Q9FM19 1-286) MGNLFCCVQVDQSTVAIKETFGKFEDVLEPGCHFLPWCLGSQVAGYLSLRVQQLDVRCETKTKDNVFVNVVASIQYRALANKANDAYYKLSNTRGQIQAYVFDVIRASVPKLLLDDVFEQKNDIAKAVEEELEKAMSAYGYEIVQTLIVDIEPDEHVKRAMNEINAAARMRLAANEKAEAEKILQIKRAEGEAESKYLSGLGIARQRQAIVDGLRDSVLGFAVNVPGTTAKDVMDMVLVTQYFDTMKEIGASSKSSAVFIPHGPGAVRDVASQIRDGLLQGSSANL |  |  |  |  | binds | binds

Source: publication PMC5357849
